Results: PubChem BioAssay AID662 (National Center for Advancing Translational Sciences (NCATS), 2007)
The other results are listed elsewhere or left out. These are further read-outs of the screen, such as a control signal, another cell line or another target. No call is given for them. Compounds called inactive in the main read-out are mostly missing here. The note in brackets gives the kind of curve behind each potency; many fits are weak.

assay: Cell signaling CRE-BLA (Fsk stim); conditions: CHO CRE-bla reporter (cAMP response element driving beta-lactamase), forskolin EC10, beta-lactamase ratio; measured here: 460 nm blue channel
Outline: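 Titrated compounds plus EC10 NKH 477 on CHO CRE-bla cells, 3 h, 37 °C. CCF4, 2 h RT. Ratio 460/530 nm → AC50.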

Row | Compound | AC50
1 | COC(=O)c1cc(OC)c(OC)cc1NC(=O)CCc1ccc(C)o1 | 12.6 µM [rising, single point]
2 | CCOc1ccc(C(C)=O)cc1N1C(=O)C2C3C=CC(C3)C2C1=O (stereo not drawn) | 0.00316 µM [falling, full curve, poor fit]
3 | CCCn1c(C)nc2c(N(CCN(C)C)Cc3ccccc3)nc(C)nc21 | 10 µM [rising, partial curve]
4 | C=C(C)Cn1c(COc2ccccc2)nnc1SCC(=O)O | 25.1 µM [rising, single point]
5 | c1ccc(CNc2nc3ccccc3n3cnnc23)nc1 | 10 µM [rising, partial curve]
6 | CCc1cc2c(=O)c(-c3ccon3)c(N)oc2cc1OC | 12.6 µM [rising, single point]
7 | N=c1c(C(=O)NCc2ccc(F)cc2)cc2c(=O)n3ccccc3nc2n1CCCN1CCOCC1 | 3.16 µM [rising, full curve]
8 | Nc1cc(C(=O)O)ccc1Nc1ccccc1 | 0.398 µM [rising, partial curve]
9 | Cc1nc2sccn2c1-c1nc(C2CC2)c(C(=O)c2ccc3c(c2)NC(=O)CO3)s1 | 2.51 µM [rising, full curve]
10 | CCOC(=O)N1CCC(NC(=O)CCN2C(=O)C3C4C=CC(C4)C3C2=O)CC1 (stereo not drawn) | 0.0251 µM [falling, full curve]
11 | CCOC(=O)Cc1csc(NC(=O)c2ccc(S(=O)(=O)N3CCCC3)cc2)n1 | 10 µM [rising, partial curve]
12 | CC(=O)c1c(C)[nH]c(C(=O)NCCC2=CCCCC2)c1C | 5.01 µM [rising, single point]
13 | COc1cc(NC(=O)C2CCCN2S(=O)(=O)c2cccc3cccnc23)cc(OC)c1OC (stereo not drawn) | 5.01 µM [rising, partial curve]
14 | COCCn1c(SCc2ccc(C(=O)OC)o2)nc2ccccc2c1=O | 10 µM [rising, partial curve]
15 | O=C(Nc1ccc2c(c1)OCO2)C1CCCCN1S(=O)(=O)c1ccc(F)cc1 (stereo not drawn) | 7.94 µM [falling, partial curve]
16 | Cn1cc(-c2nc3cnc(N4CCNCC4)nc3n(Cc3ccc(F)cc3)c2=O)c2ccccc21 | 2.51 µM [rising, full curve]
17 | O=C(COC(=O)c1cccc(S(=O)(=O)N2CCOCC2)c1)Nc1ccc2c(c1)OCO2 | 3.98 µM [falling, partial curve]
18 | CN(C)Cc1ccccc1-c1nc(NCc2cccs2)c2ccccc2n1 | 3.98 µM [rising, partial curve]
19 | Fc1cccc(-c2cc3nc4c(c(N5CCOCC5)n3n2)CCCC4)c1 | 2 µM [rising, partial curve]
20 | CCc1ccc(-c2nc(-c3ccncc3)no2)cc1 | 1 µM [rising, single point]
21 | COc1ccc(C2C(C#N)=C(N)Oc3cc(O)ccc32)cc1OC (stereo not drawn) | 10 µM [rising, partial curve]
22 | Cc1nn(-c2ccccc2)c2sc(C(=O)OCN3C(=O)c4ccccc4C3=O)cc12 | 1.26 µM [rising, full curve]
23 | O=C(c1ccco1)c1cn[nH]c1-c1ccc(Cl)cc1O | 7.94 µM [falling, partial curve]

Copied from the list:
Value of CCc1ccc(-c2nc(-c3ccncc3)no2)cc1 under AC50: 1 µM [rising, single point]
Value of Fc1cccc(-c2cc3nc4c(c(N5CCOCC5)n3n2)CCCC4)c1 under AC50: 2 µM [rising, partial curve]

(listing goes on)

Row | Compound | AC50
24 | CC1(C)C(=O)NCCN1C(=O)CSc1nccc(-c2ccc(Br)cc2)n1 | 25.1 µM [rising, single point]
25 | N[C@H](C(=O)O)[C@@H]1C[C@@H]1C(=O)O | 31.6 µM [falling, single point]
26 | CCC(=O)N1CCN(c2ccccc2NC(=O)COc2cc(C)ccc2C(C)C)CC1 | 25.1 µM [falling, single point]
27 | COc1ccc(NC(=O)CN2C(=O)C(C)Oc3ccccc32)c(OC)c1 (stereo not drawn) | 5.01 µM [rising, single point]
28 | Cc1ccc(-c2cc(-c3ccc4c(c3)OCO4)c(C#N)c(N)n2)o1 | 15.8 µM [rising, partial curve]
29 | Cc1cccc(Nc2nn3c(=O)c4ccccc4nc3s2)c1 | 1.58 µM [rising, partial curve, poor fit]
30 | CC1CCC(NC(=O)CN2CCC(n3nnc4cc(F)ccc43)CC2)CC1 (stereo not drawn) | 12.6 µM [rising, partial curve]
31 | COc1cc(C(=O)NCc2cn3ccccc3n2)cc(OC)c1OC | 15.8 µM [rising, partial curve]
32 | O=c1oc2c3c4c(cc2cc1-c1nc2ccccc2[nH]1)CCCN4CCC3 | 10 µM [rising, partial curve]
33 | CC(C)(C)[C@@]1(O)CCN2C[C@@H]3c4ccccc4CCc4cccc(c43)[C@@H]2C1 | 12.6 µM [falling, single point]
34 | CCNc1ncc2nc(-c3ccc(F)cc3)c(=O)n(CCc3ccccc3)c2n1 | 0.794 µM [rising, full curve]
35 | CCCc1[nH]nc2c1C(c1ccc(OC)c(Cn3nc(C)c(Br)c3C)c1)C(C#N)=C(N)O2 (stereo not drawn) | 25.1 µM [rising, single point]
36 | O=C(Nc1ccc(-c2noc(CCc3ccccc3)n2)cc1)c1cccnc1 | 20 µM [falling, single point]
37 | COc1ccc(Cl)cc1NC(=O)CSc1ncnc2c1oc1ccccc12 | 0.316 µM [rising, full curve]
38 | COc1cc(C(=O)NCc2ccco2)cc(OC)c1OC | 12.6 µM [rising, single point]
39 | COc1ccc(-c2ccc(SCC(=O)N3CCCC3)nn2)cc1OC | 12.6 µM [rising, partial curve]
40 | CCN(CC(=O)NC1CCS(=O)(=O)C1)C(=O)COc1ccccc1-c1ccccc1 (stereo not drawn) | 0.01 µM [falling, full curve, poor fit]
41 | COc1ccc(C(=O)CSc2nc3nc(C)cc(C)n3n2)cc1OC | 5.01 µM [rising, partial curve]
42 | N#Cc1ccccc1-c1ccc2ncnc(NCc3cccnc3)c2c1 | 5.01 µM [rising, partial curve]
43 | O=c1[nH]c2ccccc2c2nc3ccccn3c12 | 10 µM [rising, partial curve]
44 | CCc1nc(SCCO)c2oc3ccccc3c2n1 | 5.01 µM [rising, partial curve]
45 | COc1ccc(-c2cc(C(=O)NCc3cccnc3)no2)cc1 | 12.6 µM [falling, partial curve]
46 | CN1CCN(C(=O)CSc2nc(-c3cccs3)cc(-c3cccs3)c2C#N)CC1 | 25.1 µM [rising, single point]

Row | Compound | AC50
47 | CC(C)Oc1ccc(C(=O)N(CN2CCCC2=O)c2ccc(F)cc2)cc1 | 0.1 µM [falling, full curve]
48 | O=C(c1cc(Cl)cc(Cl)c1)N1CCOCC1 | 0.00398 µM [rising, full curve, poor fit]
49 | O=C(c1cc(-c2cccs2)on1)N1CCOCC1 | 15.8 µM [falling, partial curve]
50 | CCN(CC)C(=O)CSC1=Nc2ccccc2C2=NC(Cc3c[nH]c4ccccc34)C(=O)N12 (stereo not drawn) | 3.16 µM [rising, partial curve]
51 | COc1cc(OC)cc(C(=O)NCC(=O)OC2CCOC2=O)c1 (stereo not drawn) | 5.01 µM [falling, single point]
52 | COc1ccc2nc(S(=O)Cc3ncc(C)c(OC)c3C)[nH]c2c1 (stereo not drawn) | 7.94 µM [rising, partial curve]
53 | C=CCn1cnc2scc(-c3ccccc3)c2c1=O | 12.6 µM [rising, partial curve]
54 | C=C1CC[C@@H]2[C@](C)(CC[C@@H](O)[C@]2(C)CO)[C@@H]1C/C=C1/C(=O)OC[C@H]1O | 31.6 µM [falling, single point]
55 | CCOC(=O)C1CCCc2c1[nH]c1c(C(=O)O)cccc21 (stereo not drawn) | 0.0794 µM [rising, full curve, poor fit]
56 | COc1ccc(-c2cnc(N)n2CC2CCCO2)cc1 (stereo not drawn) | 15.8 µM [rising, single point]
57 | O=S(=O)(c1cccc(-c2nnco2)c1)N1CCCC1 | 5.01 µM [falling, single point]
58 | Cc1ccccc1C(=O)c1cccn1CC(=O)NCc1ccco1 | 0.126 µM [falling, full curve]
59 | Cc1c(C(=O)N2CCN(c3ccccn3)CC2)oc2ccccc12 | 3.16 µM [rising, single point]
60 | CCOC(=O)C1=C(C)N(C)C(=O)NC1c1ccc(C)s1 (stereo not drawn) | 0.00316 µM [falling, full curve, poor fit]
61 | O=C(CSc1cccc2cccnc12)NCc1ccco1 | 10 µM [falling, partial curve]
62 | CN(C)c1ncc2nc(CCc3ccccc3)c(=O)n(Cc3ccc(F)cc3)c2n1 | 0.1 µM [rising, full curve, poor fit]
63 | CCCN(Cc1ccccc1)C(=O)Nc1ccc2c(c1)nnn2C | 6.31 µM [rising, partial curve, poor fit]
64 | Cc1ccc2c(c1)c1ncnc(N3CCN(c4ccccc4)CC3)c1n2C | 12.6 µM [rising, partial curve]
65 | CCn1c(=O)cc(OCC(=O)NCc2ccco2)c2ccccc21 | 12.6 µM [rising, partial curve]
66 | COC(=O)Cn1ncn2c(cc3oc(C)cc32)c1=O | 20 µM [falling, partial curve, poor fit]
67 | COc1ccc(CNc2ncnc3ccc(-c4ccc5c(c4)OCO5)cc23)c(OC)c1 | 10 µM [rising, partial curve]
68 | CN(C)Cc1ccccc1-c1ccc2ncnc(N(C)Cc3ccco3)c2c1 | 3.98 µM [rising, full curve]

Some of the entries above in another layout:
C=C(C)Cn1c(COc2ccccc2)nnc1SCC(=O)O
  AC50: 25.1 µM [rising, single point]
CCc1ccc(-c2nc(-c3ccncc3)no2)cc1
  AC50: 1 µM [rising, single point]
O=C(Nc1ccc(-c2noc(CCc3ccccc3)n2)cc1)c1cccnc1
  AC50: 20 µM [falling, single point]
COc1cc(OC)cc(C(=O)NCC(=O)OC2CCOC2=O)c1 (stereo not drawn)
  AC50: 5.01 µM [falling, single point]
